Not every entry of the source has a single result; some have several. The other results are left out here. There may be further records. The values listed for one entry differ for a reason that is not stated; some may be repeats, others may stem from another dose, organism or construct than stated.
Biological target: h-cGAS (Homo sapiens, UniProt Q8N884)
Assay: RapidFire mass spectrometry (RF-MS) cGAS activity assay, h-cGAS
Conditions: read-out: IC50 h-cGAS

By UniProt entry, the sequences of proteins in these tests, tags left out.
UniProt Q8N884, whole entry: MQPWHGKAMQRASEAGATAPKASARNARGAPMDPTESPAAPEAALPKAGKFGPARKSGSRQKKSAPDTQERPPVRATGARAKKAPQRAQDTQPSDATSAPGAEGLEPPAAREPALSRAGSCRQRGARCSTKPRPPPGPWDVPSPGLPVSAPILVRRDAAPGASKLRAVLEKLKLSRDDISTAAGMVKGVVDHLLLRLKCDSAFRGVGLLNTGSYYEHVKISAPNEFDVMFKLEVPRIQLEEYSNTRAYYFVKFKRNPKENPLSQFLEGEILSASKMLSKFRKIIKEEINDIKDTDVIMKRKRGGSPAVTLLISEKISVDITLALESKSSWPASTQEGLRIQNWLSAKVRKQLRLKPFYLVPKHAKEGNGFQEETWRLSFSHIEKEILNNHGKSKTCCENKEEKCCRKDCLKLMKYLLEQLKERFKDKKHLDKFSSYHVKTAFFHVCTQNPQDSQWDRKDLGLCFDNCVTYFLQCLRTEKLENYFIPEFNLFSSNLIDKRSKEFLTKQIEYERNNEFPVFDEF

| Compound | IC50 |
| --- | --- |
| O=C(CO)N1CCc2[nH]c3c(Cl)c(Br)ccc3c2C1 [G086] | > 39 nM and < 100 nM |
| O=C(CO)N1CCc2[nH]c3c(F)c(Br)ccc3c2C1 [G092] | > 39 nM and < 100 nM |

Source: article PMC6529454, “Development of human cGAS-specific small-molecule inhibitors for repression of dsDNA-triggered interferon expression” (Nature Communications, 2019)
